# Data taken from the supplement of paper PMC6414424.
# Where a name gives a salt, the structure may show the parent alone. ± gives the standard deviation of the averaged measurements. The list shows a part of the results.
# Test system: APPdp1-6 iPSC-derived neurons
# Test: pThr231Tau/total Tau ratio Z-score vs DMSO vehicle wells; higher = more pThr231Tau relative to total Tau
# Conditions: 5 µM; treatment time 5 days
row,SMILES,pThr231Tau/total Tau ratio Z-score
1,CCCCCC(O)C=CC1C(O)CC(=O)C1CCCCCCC(=O)O (stereo not given) [Prestw-1018],-0.003 ± 1
2,"O=C1CN2Cc3c(ccc(Cl)c3Cl)N=C2N1 [ANAGRELIDE HYDROCHLORIDE, antithrombotic]",-0.555 ± 0.098
3,Nc1nc(=S)c2ncn([C@@H]3O[C@H](CO)[C@@H](O)[C@H]3O)c2[nH]1 [Prestw-347],0.106 ± 0.82
4,CC(C)NCC(O)COc1ccc(COCCOC(C)C)cc1 (stereo not given) [Prestw-330],0.269 ± 0.48
5,Nc1nc(=O)c2nc(CNc3ccc(C(=O)N[C@@H](CCC(=O)O)C(=O)O)cc3)cnc2[nH]1 [Prestw-627],1.28 ± 0.8
6,CC(=O)N[C@@H](CC(C)C)C(=O)O [Prestw-896],-0.44 ± 0.33
7,"CC/C=C\C/C=C\C/C=C\C/C=C\C/C=C\CCCC(=O)OCC [OMEGA-3-ACID ESTERS (EPA shown), hypolipidemic]",0.245 ± 0.53
8,CC[C@H]1OC(=O)[C@H](C)[C@@H](O[C@H]2C[C@@](C)(OC)[C@@H](O)[C@H](C)O2)[C@H](C)[C@@H](O[C@@H]2O[C@H](C)C[C@H](N(C)C)[C@H]2O)[C@](C)(O)C[C@@H](C)/C(=N\OCOCCOC)[C@H](C)[C@@H](O)[C@]1(C)O [Prestw-854],-0.281 ± 0.2
9,Nc1nc(F)nc2c1ncn2[C@@H]1O[C@H](CO)[C@@H](O)[C@@H]1O [Prestw-1483],0.998 ± 0.67
10,CC1CS(=O)(=O)CCN1/N=C/c1ccc([N+](=O)[O-])o1 (stereo not given) [Prestw-1024],-0.801 ± 0.14
11,NC(=O)NC(=O)Cc1ccccc1 [PHENACEMIDE    Therap cat:  Anticonvulsant],-1.09 ± 1.4
12,CN1CC2c3ccccc3Oc3ccc(Cl)cc3C2C1 (stereo not given) [Prestw-1231],-0.918 ± 0.97
13,CN1[C@@H](CC(=O)c2ccccc2)CCC[C@H]1C[C@H](O)c1ccccc1,-0.105 ± 2.1
14,OC[C@@H](O)[C@@H](O[C@@H]1O[C@H](CO)[C@H](O)[C@H](O)[C@H]1O)[C@H](O)[C@@H](O)CO,2.71 ± 3.2
15,c1ccc2[nH]c(-c3cscn3)nc2c1 [Prestw-524],-0.795 ± 1.4
16,CCCCCCCN(CC)CCCC(O)c1ccc(NS(C)(=O)=O)cc1 (stereo not given) [Prestw-1508],0.0643 ± 0.3
17,COc1ccc(-c2cc(=O)c3c(O)cc(O[C@@H]4O[C@H](CO[C@@H]5O[C@@H](C)[C@H](O)[C@@H](O)[C@H]5O)[C@@H](O)[C@H](O)[C@H]4O)cc3o2)cc1O [Prestw-1503],0.133 ± 0.25
18,CCOC(=O)C1=C[C@]2(CC)CCCN3CCc4c(n1c1ccccc41)[C@@H]32 [Prestw-268],-1.75 ± 0.4
19,Cc1cccc(CN2CCN(C(c3ccccc3)c3ccc(Cl)cc3)CC2)c1 (stereo not given) [Prestw-457],-0.149 ± 0.76
20,O=C(O)CCC(=O)Nc1ccc(S(=O)(=O)Nc2nccs2)cc1 [Prestw-702],0.703 ± 0.15
21,COc1cnc(NS(=O)(=O)c2ccc(N)cc2)nc1 [Prestw-769],0.506 ± 1.3
22,CNCCC(Oc1ccccc1OC)c1ccccc1 (stereo not given) [Prestw-910],0.897 ± 0.51
23,COc1ccccc1O [Prestw-1268],-1.19
24,CC(=O)OCC1=C(C(=O)O)N2C(=O)[C@@H](NC(=O)CSc3ccncc3)[C@H]2SC1,0.141 ± 2.2
25,CC(=O)N(CC(C)C(=O)O)c1c(I)cc(I)c(N)c1I (stereo not given) [Prestw-838],0.66 ± 0.54

row,SMILES,pThr231Tau/total Tau ratio Z-score
1,CC(C)(S)C(N)C(=O)O (stereo not given) [Prestw-1477],-0.734 ± 0.49
2,C[C@]12CC[C@@H]3c4ccc(O)cc4CC[C@H]3[C@@H]1CCC2=O [Prestw-914],-0.22 ± 0.18
3,CCCCOc1cc(C(=O)NCCN(CC)CC)c2ccccc2n1 [Prestw-76],-0.408 ± 0.18
4,O=P(O)(O)C(Cl)(Cl)P(=O)(O)O [Prestw-1381],0.119 ± 0.33
5,O=C1CCc2cc(OCCCCc3nnnn3C3CCCCC3)ccc2N1 [Prestw-587],-1.1 ± 0.19
6,CCS(=O)(=O)CCn1c([N+](=O)[O-])cnc1C [Prestw-766],-0.119 ± 1.1
7,CCCCCCc1ccc(O)cc1O,-0.439 ± 0.17
8,CC1(C)NC(=O)N(c2ccc([N+](=O)[O-])c(C(F)(F)F)c2)C1=O [Prestw-928],0.523 ± 0.66
9,COC(=O)[C@@H]1[C@H]2C[C@H]3c4[nH]c5ccccc5c4CCN3C[C@@H]2CC[C@@H]1O [Prestw-584],-0.213 ± 0.44
10,"C[C@]12C=CC(=O)C=C1CC[C@@H]1[C@@H]2[C@@H](O)C[C@@]2(C)[C@H]1CC[C@]2(O)C(=O)COC(=O)CCC(=O)O [PREDNISOLONE HEMISUCCINATE, antiinflammatory, glucocorticoid]",0.544 ± 0.51
11,CCC(C)n1ncn(-c2ccc(N3CCN(c4ccc(OC[C@H]5CO[C@](Cn6cncn6)(c6ccc(Cl)cc6Cl)O5)cc4)CC3)cc2)c1=O (stereo not given in full) [Prestw-1139],0.584 ± 0.6
12,COc1ccc2cc([C@@H](C)C(=O)O)ccc2c1 [Prestw-791],1.5 ± 0.49
13,CCn1cc(C(=O)O)c(=O)c2cnc(N3CCCC3)nc21 [Prestw-805],-0.321 ± 1.1
14,CC(C)[N+]1(C)C2CCC1CC(OC(=O)C(CO)c1ccccc1)C2 (stereo not given),0.945 ± 0.22
15,O=S(=O)(O)CCS [Prestw-1487],1.61 ± 0.062
16,CCCCCCCCCCCCC[N+](C)(C)Cc1ccccc1,-4.67 ± 0.69
17,CC(C)(C)NC[C@H](O)c1ccc(O)c(CO)c1 [Prestw-1516],0.85 ± 0.58
18,O=C(O)c1cc(-c2ccc(F)cc2F)ccc1O [Prestw-39],1.87 ± 1.8
19,CCCCNC(=O)NS(=O)(=O)c1ccc(C)cc1 [Prestw-190],-0.808 ± 2
20,CC(=O)[C@H]1CC[C@H]2[C@@H]3C[C@H](C)C4=CC(=O)CC[C@]4(C)[C@H]3[C@@H](O)C[C@]12C [Prestw-743],0.0382 ± 0.93
21,OCc1cc(C(O)CNCCCCCCOCCCCc2ccccc2)ccc1O (stereo not given) [Prestw-945],-0.513 ± 0.76
22,O=C(O)Cc1sc(-c2ccccc2)nc1-c1ccc(Cl)cc1 [Prestw-1254],-1.04 ± 0.67
23,CC(=O)OCC(=O)[C@@]12N=C(C)O[C@@H]1C[C@H]1[C@@H]3CCC4=CC(=O)C=C[C@]4(C)[C@H]3[C@@H](O)C[C@@]12C [Prestw-1509],-0.271 ± 0.19
24,C=C1c2c(Cl)ccc(O)c2C(O)=C2C(=O)[C@]3(O)C(O)=C(C(N)=O)C(=O)[C@@H](N(C)C)[C@@H]3[C@@H](O)[C@H]12.O=C(O)c1cc(S(=O)(=O)O)ccc1O [Prestw-456],0.184 ± 0.47
25,N=C(N)NCCC[C@H](N)C(=O)O,1.28 ± 1.8

# Compounds listed so far that contain an aryl methoxy group:
row,SMILES,pThr231Tau/total Tau ratio Z-score
17,COc1ccc(-c2cc(=O)c3c(O)cc(O[C@@H]4O[C@H](CO[C@@H]5O[C@@H](C)[C@H](O)[C@@H](O)[C@H]5O)[C@@H](O)[C@H](O)[C@H]4O)cc3o2)cc1O [Prestw-1503],0.133 ± 0.25
21,COc1cnc(NS(=O)(=O)c2ccc(N)cc2)nc1 [Prestw-769],0.506 ± 1.3
22,CNCCC(Oc1ccccc1OC)c1ccccc1 (stereo not given) [Prestw-910],0.897 ± 0.51
23,COc1ccccc1O [Prestw-1268],-1.19
12,COc1ccc2cc([C@@H](C)C(=O)O)ccc2c1 [Prestw-791],1.5 ± 0.49

# Looked up above.
# `CCCCOc1cc(C(=O)NCCN(CC)CC)c2ccccc2n1` [Prestw-76] | pThr231Tau/total Tau ratio Z-score: -0.408 ± 0.18
# `CC(=O)OCC(=O)[C@@]12N=C(C)O[C@@H]1C[C@H]1[C@@H]3CCC4=CC(=O)C=C[C@]4(C)[C@H]3[C@@H](O)C[C@@]12C` [Prestw-1509] | pThr231Tau/total Tau ratio Z-score: -0.271 ± 0.19

# Next structures

row,SMILES,pThr231Tau/total Tau ratio Z-score
1,Cc1nc2n(c(=O)c1CCN1CCC(c3noc4cc(F)ccc34)CC1)CCCC2 [Prestw-1029],0.415 ± 1.4
2,CNCCC(Oc1ccc(C(F)(F)F)cc1)c1ccccc1 (stereo not given) [Prestw-511],-1.04 ± 2.3
3,CC(C)NC[C@H](O)c1ccc(O)c(O)c1 [Prestw-1097],0.113 ± 1.2
4,CC(Oc1ccccc1)C(=O)N[C@@H]1C(=O)N2[C@@H]1SC(C)(C)[C@@H]2C(=O)O (stereo not given in full) [Prestw-723],0.728 ± 0.27
5,"COc1ccc(-c2cc(C(F)F)nn2-c2ccc(S(N)(=O)=O)cc2)cc1F [DERACOXIB, antiinflammatory, antiarthritic, COX-2 inhibitor]",-0.536 ± 0.45
6,N[C@@H](C(=O)N[C@@H]1C(=O)N2C(C(=O)O)=C(Cl)CS[C@H]12)c1ccccc1 [Prestw-485],-0.312 ± 0.42
7,COc1ccc(C(=O)NCc2ccc(OCCN(C)C)cc2)cc1OC [Prestw-1295],-0.412 ± 0.93
8,O=C1c2ccccc2S(=O)(=O)N1CCCCN1CCN(c2ncccn2)CC1 [Prestw-1292],0.133 ± 0.74
9,NC(N)=O,2.41 ± 2.1
10,Cn1c([N+](=O)[O-])cnc1COC(N)=O [Prestw-1115],-0.0586 ± 1.9
11,CO[C@H]1C=CO[C@@]2(C)Oc3c(C)c(O)c4c(O)c(c5c(c4c3C2=O)=NC2(CCN(CC(C)C)CC2)N=5)NC(=O)C(C)=CC=C[C@H](C)[C@H](O)[C@@H](C)[C@@H](O)[C@@H](C)[C@H](OC(C)=O)[C@@H]1C [Prestw-1109],-1.08 ± 0.74
12,c1ccc2c(c1)CCCc1cc(NCCN3CCOCC3)nnc1-2 [Prestw-406],-0.52
13,Nc1cc(-c2ccncc2)c[nH]c1=O [Prestw-800],-0.812 ± 1.1
14,C[C@H]1C[C@@H]2[C@H]([C@@H](O)C[C@@]3(C)[C@H]2CC[C@]3(O)C(=O)COC(=O)CCC(=O)O)[C@@]2(C)C=CC(=O)C=C12,2.27 ± 1.9
15,Nc1c(Br)cc(Br)cc1CNC1CCC(O)CC1 (stereo not given) [Prestw-366],0.0922 ± 0.14
16,CC(N)C12CC3CC(CC(C3)C1)C2 (stereo not given) [Prestw-1331],-0.138 ± 0.033
17,CCCCc1ccc2nc(NC(=O)OC)[nH]c2c1 [Prestw-1110],-0.967 ± 4.3
18,CN(CCOc1ccc(CC2SC(=O)NC2=O)cc1)c1ccccn1 (stereo not given) [Prestw-1337],-1.06 ± 0.13
19,CCC(=O)OCC(=O)[C@@]1(OC(=O)CC)[C@H](C)C[C@H]2[C@H]3[C@H]([C@@H](O)C[C@@]21C)[C@@]1(C)C=CC(=O)C=C1C[C@H]3Cl [Prestw-771],0.445 ± 0.98
20,O=C(OCc1ccccc1)c1ccccc1 [BENZYL BENZOATE    Therap cat: scabicide],0.416 ± 0.25
21,OC(CCN1CCCCC1)(c1ccccc1)C1CCCCC1 (stereo not given) [Prestw-701],-0.806 ± 0.43
22,Cc1ccc2c(Cl)cc(Cl)c(O)c2n1,0.0156 ± 0.98
23,N=C(N)N/N=C/c1c(Cl)cccc1Cl [Prestw-96],1.19 ± 0.46
24,"CCCCCCCCCC(=O)N[C@H]1[C@H](Oc2c3cc4cc2Oc2ccc(cc2Cl)[C@@H](O[C@@H]2O[C@H](CO)[C@@H](O)[C@H](O)[C@H]2NC(C)=O)[C@@H]2NC(=O)[C@H](NC(=O)[C@@H]4NC(=O)[C@H]4NC(=O)[C@@H](Cc5ccc(c(Cl)c5)O3)NC(=O)[C@H](N)c3ccc(O)c(c3)Oc3cc(O)cc4c3)c3ccc(O)c(c3)-c3c(OC4O[C@H](CO)[C@@H](O)[C@H](O)[C@@H]4O)cc(O)cc3[C@@H](C(=O)O)NC2=O)O[C@H](CO)[C@@H](O)[C@@H]1O (stereo not given in full) [TEICOPLANIN [A(2-1) shown], antibacterial]",1.56 ± 1.6
25,CN(C)CCOC(=O)COc1ccc(Cl)cc1 [Prestw-763],0.151 ± 0.35
